Assay [1] deals with T1, SopD2 (SPI-2 effector) (S. Typhimurium) (UniProt Q8ZQC8).
T1 sequence: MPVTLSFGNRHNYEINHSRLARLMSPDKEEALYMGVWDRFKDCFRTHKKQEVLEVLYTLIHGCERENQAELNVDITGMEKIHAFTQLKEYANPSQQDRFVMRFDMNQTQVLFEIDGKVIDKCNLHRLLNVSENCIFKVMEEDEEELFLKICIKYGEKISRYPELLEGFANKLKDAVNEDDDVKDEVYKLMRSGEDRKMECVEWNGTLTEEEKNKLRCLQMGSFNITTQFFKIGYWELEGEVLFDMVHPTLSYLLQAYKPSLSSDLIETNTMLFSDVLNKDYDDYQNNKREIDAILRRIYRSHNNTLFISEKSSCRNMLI
The experiment in a line: co-IP; HEK293T transfected with CIC-Myc (with RAB7-mCherry in Fig. 5f; CIC-deficient cells in Supplementary Fig. 11c), infected with S. Typhimurium expressing the tagged effector (MOI 20, 16 h); lysis in 20 mM Tris-HCl, 150 mM NaCl, 1 mM EDTA, 1% NP-40; immunoprecipitation with anti-HA agarose, 3 h, 4 °C; western blot.

Assay [2] deals with T2, PipB2 (SPI-2 effector) (S. Typhimurium) (UniProt Q8ZMM8).
T2 sequence: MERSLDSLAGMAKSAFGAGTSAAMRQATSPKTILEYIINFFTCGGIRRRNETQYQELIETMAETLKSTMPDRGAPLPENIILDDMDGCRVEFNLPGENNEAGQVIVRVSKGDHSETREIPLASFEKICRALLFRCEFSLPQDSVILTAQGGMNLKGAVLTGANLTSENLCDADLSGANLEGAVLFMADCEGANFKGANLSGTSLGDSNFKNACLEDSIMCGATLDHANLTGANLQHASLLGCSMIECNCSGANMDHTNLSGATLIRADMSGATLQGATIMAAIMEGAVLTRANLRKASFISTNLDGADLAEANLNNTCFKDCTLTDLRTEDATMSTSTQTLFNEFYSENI
The assay is described as above.

Results are given in words; binding and its absence hold for the method and conditions named. In cells and extracts the contact can be indirect.

Consider “Myc-tagged CIC (mitochondrial citrate carrier, tricarboxylate carrier, encoded by SLC25A1), transiently expressed (from UniProt P53007 14-311)”, for which the binding result in assay [1] and in assay [2] was “no binding” throughout.

Source of the values: PMC12592408.
